No constants are given. Whether binding was seen depends on the method and setting. Some binding calls cover weakened binding; strength is not graded here.
Target: T1, Canine IL-31RA ECD-10His (canine)
T1 construct: made in HEK-293 or CHO cells and coated on the ELISA plates; also called canine IL-31 receptor alpha extracellular domain HIS-tagged protein; cIL-31RA
T1 chain: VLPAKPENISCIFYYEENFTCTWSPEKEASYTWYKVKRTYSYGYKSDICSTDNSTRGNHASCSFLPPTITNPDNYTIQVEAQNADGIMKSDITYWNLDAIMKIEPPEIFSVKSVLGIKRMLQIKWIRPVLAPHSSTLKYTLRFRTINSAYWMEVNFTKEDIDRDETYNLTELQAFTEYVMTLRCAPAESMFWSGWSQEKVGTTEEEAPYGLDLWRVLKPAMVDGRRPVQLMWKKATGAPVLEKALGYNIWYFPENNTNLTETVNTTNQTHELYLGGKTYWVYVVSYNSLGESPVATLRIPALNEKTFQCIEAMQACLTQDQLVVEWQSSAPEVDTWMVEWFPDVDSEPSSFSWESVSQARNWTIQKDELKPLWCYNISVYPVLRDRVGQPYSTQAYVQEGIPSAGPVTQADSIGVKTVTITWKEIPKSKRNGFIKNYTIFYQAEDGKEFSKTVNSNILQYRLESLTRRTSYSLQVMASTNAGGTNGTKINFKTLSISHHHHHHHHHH
Assay: ELISA, IL-31RA coated

B1: 38A6 (antibody, V domains shown)
VH: EVQLVESGGGLVQPGRSLKLSCVASGFTFNNYWMTWIRQAPGKGLEWVASITNTGGTTYYPDSVKGRFTISRDNAKSTLYLQMNSLRSEDTATYYCTRGPTTVVGGWFAYWGQGTLVTVSS
VL: DIVMTQSPTSMSISVGDRVTMNCKASQNVGSNVDWYQQKTGQSPKVLIYRASSRSTGVPDRFTGSGSGTDFTFTISNMQAEDLAVYYCMQSNSYPPTFGGGTKLELK
- binding: binds
